The test system of the data set is MHC II b mRNA. Briefly: MHC IIb mRNA expression by RT-PCR in masseter muscle of intact female rats. It is filed as in vivo, rat. As to conditions: for 18 S band intensity (average intensity of all pixels in the spot): internal control 18S. The protocol:
Rat muscle tissue was harvested in 5 volumes of RNA later solution (Ambion, cat.# 7020) and stored at 4° C. until used for RNA isolation. Total RNA was isolated in the FastPrep FP120 instrument (Qbiogene) using RNAqueous-4PCR kit (Ambion, cat # 1914) in combination with FastRNA green tubes (Qbiogene, cat.# 6040-600) at settings for time at 45 sec and speed at 6.5.1 ug of total RNA was used for reverse transcription using Retroscript kit (Ambion, cat# 1710). The mixture was incubated at 42° C. for 60 min, followed by 10 min at 92° C., and then chilled on ice and used in PCR reaction.
Relatively quantitative RT-PCR was used to analyze expression of MHC mRNA in rat musculus masseter (MM) and levator ani (LA). As an internal standard 18S ribosomal RNA was used (QuantumRNA classic 18S Internal Standard, Ambion, cat.# 1716). Linear range of PCR reaction for all primers as well as optimal ratio of 18S primers to competitors to achieve the same level of amplification as the genes of interest was determined.
Primers were obtained from IDT based on the recently published design (Wright et al., J. Appl. Phys. 1997;83:1389), with the following sequence: 5′[…]3′. […]
5 units of Taq DNA polymerase (Roche, cat# 1146165), 200 μM of each dNTP (Invitrogen, cat.#R725-01), 0.2 μM each MHC primer (IDT), 1 μl of cDNA from reverse transcription reaction and 4 μl of 18S primers: competitors mixture were used in 50 μl PCR reaction. […] PCR products were analyzed by agarose gel electrophoresis [20-μl aliquots of a 50-μl PCR reaction loaded on a 1.5% agarose gel (in 1× Tris-Acetate-EDTA buffer) containing 0.2 μg/ml ethidium bromide] to visualize the PCR products. […] Pictures were scanned and the volume of the optical density (OD) of a DNA band was determined by the Image Quant software (Molecular Dynamics), and the background was subtracted (so local background was directly proportional to the amount of DNA over a wide range). […] The content of each experimental group MHC gene was calculated as a percentage of the MHC value in the control group (Table 2).

The structures appear in SMILES notation.

Consider `CC(=O)Nc1ccc(OC[C@](C)(O)C(=O)Nc2ccc([N+](=O)[O-])c(C(F)(F)F)c2)cc1` [Compound V], for which the “18 S band intensity (average intensity of all pixels in the spot)” value is on record as 171.

On to `CCC(=O)O[C@H]1CC[C@H]2[C@@H]3CCC4=CC(=O)CC[C@]4(C)[C@H]3CC[C@]12C` [TP, testosterone propionate, reference compound], for which the “II b/18 S” value is listed as 0.64 and the “18 S band intensity (average intensity of all pixels in the spot)” value was 141.

Source of the values: US7547728B2, “Treating muscle wasting with selective androgen receptor modulators” (priority 2001, dated 2009).
